Some entries share one result that the patent states for a list of compounds.
System: BBC3 (puma)
Assay: Pharmacodynamic qRT-PCR: Puma mRNA induction in SJSA-1 tumor
Format: in vivo, Human
Details: previously, lower per os dose
From the text: At the times indicated, animals were anaesthetized by exposure to 2-3% v/v isofluorane in medical oxygen: • Either the animal was killed without recovering from anesthetic after blood sampling. Blood was collected into commercially prepared EDTA coated tubes (Milian, cat #TOM-14C) in order to extract plasma. The tissues were excised, weighed and rapidly frozen in liquid nitrogen. • Or a tumor biopsy was collected by using a biopsy gun and flushing the needle with RLT buffer in Barney rubble tubes (Covaris, cat #520048). In addition, 20 μl of blood may have been collected from the tail vein and diluted in 20 μl of water. After recovery of anesthesia, animals were transferred in their respective cages.
Frozen tissues were cryogenic dry pulverized and biopsies were sonicated using the CryoPrep™ system (model CP-02) from Covaris. […] The resulting powder was collected with a spatula and weighed for further processing (mRNA purification or quantification of compound in tissues). […]
Total RNA was purified from cell pellets using the QIAshredder (79654, Qiagen) and RNeasy Mini Kit (74106, Qiagen) according to the manufacturer's instructions, with the exception that no DNA digestion was performed. […] Total RNA was quantitated using the spectrophotometer ND-1000 Nanodrop®. […]

## COc1cc2c(cc1OC(C)C)[C@H](c1ccc(Cl)cc1)N(c1ccc(N(C)C[C@H]3CC[C@H](N4CCN(C)C(=O)C4)CC3)cc1)C(=O)C2 [Compound B, (S)-1-(4-Chloro-phenyl)-7-isopropoxy-6-methoxy-2-(4-{methyl-[4-(4-methyl-3-oxo-piperazin-1-yl)-trans-cyclohexylmethyl]-amino}-phenyl)-1,4-dihydro-2H-isoquinolin-3-one]
  Puma mRNA induction Emax: < 70 fold induction

From patent US11419870B2, “Intermittent dosing of MDM2 inhibitor” (Novartis AG, priority 2014, dated 2022)
